Values from PubChem BioAssay AID504784 (Drosophila RNAi Screening Center, 2011)
The deposit covers about 17,000 reagents; this is an unselected part of those that have a named target and a result. 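Each column is one replicate's B-score; the combined score over replicates was not deposited, so single values may mislead.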 Reagents against one gene are numbered here. Not all columns of the deposit are shown.

Test: 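Search for regulators of lipid droplet storage in oleate-fed fly cells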 (primary screen)
System: Drosophila Kc167 embryonic cells
Reagents: long dsRNA against Drosophila genes, about 250 ng dsRNA per well
Timing: 4 days
Treatment: cells fed 400 µM oleic acid bound to BSA
Measured: 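Microscope images give a droplet-to-nucleus area ratio, taken as log and converted to a screen-wide B-score; higher values mean greater lipid storage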
Direction: droplet/nuclear area B-score: higher = more stored lipid (overstorage)

no.	gene	dsRNA no.	droplet/nuclear area B-score, replicate 1
1	eIF1 (eukaryotic translation initiation factor 1)	1	0.409
2	Mip (Myoinhibiting peptide precursor)	1	-3.55
3	CG31870	1	0.379
4	CG8160	1	-0.381
5	CG8160	2	-0.934
6	CG14545	1	-0.138
7	CG17683	1	0.231
8	CG15482	1	-1.02
9	Liprin-alpha	1	-0.0225
10	CG31495	1	-0.329
11	Fkbp12 (FK506-binding protein 12kD)	1	0.0184
12	CG12158	1	0.104
13	galene	1	-0.6
14	galene	2	0.26
15	Pgant8 (Polypeptide N-Acetylgalactosaminyltransferase 8)	1	-0.959
16	AdipoR (Adiponectin receptor)	1	0.835
17	p38a (p38a MAP kinase)	1	0.169
18	CG9014	1	-1.69
19	CG15545	1	-1.59
20	Drep1 (DNA fragmentation factor-related protein 1)	1	-0.836
21	Tsp42Ei (Tetraspanin 42Ei)	1	0.776
22	GlcAT-I (Glucuronyltransferase I)	1	-0.922
23	CG12702	1	-0.322
24	Membrin	1	-0.718
25	CG6420	1	-1.42
26	CG14187	1	1.44
27	CG33181	1	0.517
28	CG33181	2	-0.233
29	CG3473	1	-0.68
30	CG12426	1	-0.173
31	CG2616	1	-1.48
32	Cht12 (Chitinase 12)	1	-0.388
33	VhaAC45RP (VhaAC45-related protein)	1	-1.14
34	CG33270	1	-2.36
35	CG12835 (retired record)	1	0.314
36	Xpac (Xeroderma pigmentosum group A-like)	1	-0.119
37	CG12239	1	1.62
38	CG14422	1	-0.218
39	CG3213	1	4.42
40	Ric (Ras-related protein interacting with calmodulin)	1	-1.97
41	GstE8 (Glutathione S transferase E8)	1	-1.42
42	ZnT77C (Zinc transporter 77C)	1	0.828
43	ZnT77C (Zinc transporter 77C)	2	1.65
44	l(2)37Cb (lethal (2) 37Cb)	1	-0.204
45	CG10086	1	0.403
46	CG9215	1	1.03
47	Ir48a (Ionotropic receptor 48a)	1	-0.033
48	CG32075	1	-1.74
49	Sdb (SAXO downstream of blistered)	1	0.208
50	Sdb (SAXO downstream of blistered)	2	-0.282
51	Sdb (SAXO downstream of blistered)	3	1.46
52	CG31141	1	0.619
53	mRpL30 (mitochondrial ribosomal protein L30)	1	1.93
54	CG17029	1	0.671
55	CAH7 (Carbonic anhydrase 7)	1	0.15
56	sage (salivary gland-expressed bHLH)	1	-0.0157

A portion of the results above, as a working copy:
no.	gene	dsRNA no.	droplet/nuclear area B-score, replicate 1
9	Liprin-alpha	1	-0.0225
10	CG31495	1	-0.329
11	Fkbp12 (FK506-binding protein 12kD)	1	0.0184
12	CG12158	1	0.104
13	galene	1	-0.6
14	galene	2	0.26
15	Pgant8 (Polypeptide N-Acetylgalactosaminyltransferase 8)	1	-0.959
